The supplement of paper PMC12823440, “Inhibitors supercharge kinase turnover through native proteolytic circuits” (Nature, 2025)
The list shows a part of the results. Hit calls seldom repeat between salt and free forms of one compound.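 Kinases, fused to nanoluciferase, were expressed in K562 cells; luminescence was measured every 4 h from 2 to 18 h as percent of control (DMSO = 100%, positive control = 0%). A time point is decreased if signal falls significantly (2 sigma). Hits were called by the authors by a rule that is not shown; the count of time points alone does not decide it.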

Chains of the proteins cited; added tags and fusions are not shown. Lines headed by an entry give the natural chain unless they say otherwise; changes in a name come on top.
UniProt P42680: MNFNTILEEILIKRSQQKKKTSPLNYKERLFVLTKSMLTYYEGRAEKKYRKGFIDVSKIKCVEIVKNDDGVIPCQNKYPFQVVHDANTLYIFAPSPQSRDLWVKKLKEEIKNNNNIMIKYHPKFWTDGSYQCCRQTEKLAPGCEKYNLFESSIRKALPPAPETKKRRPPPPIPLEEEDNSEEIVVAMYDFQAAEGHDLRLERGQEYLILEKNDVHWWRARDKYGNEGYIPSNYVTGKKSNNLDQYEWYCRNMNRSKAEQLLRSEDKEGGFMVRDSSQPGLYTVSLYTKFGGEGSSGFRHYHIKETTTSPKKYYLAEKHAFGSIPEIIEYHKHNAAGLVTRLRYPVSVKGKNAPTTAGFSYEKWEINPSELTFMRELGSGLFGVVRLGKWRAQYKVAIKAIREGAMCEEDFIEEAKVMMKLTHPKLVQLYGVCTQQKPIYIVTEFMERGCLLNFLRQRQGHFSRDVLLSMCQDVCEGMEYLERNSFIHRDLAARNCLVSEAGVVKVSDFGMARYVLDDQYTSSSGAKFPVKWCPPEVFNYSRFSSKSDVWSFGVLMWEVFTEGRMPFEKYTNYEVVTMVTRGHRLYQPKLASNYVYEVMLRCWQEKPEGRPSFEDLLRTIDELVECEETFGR
UniProt P07947, whole entry, looked up: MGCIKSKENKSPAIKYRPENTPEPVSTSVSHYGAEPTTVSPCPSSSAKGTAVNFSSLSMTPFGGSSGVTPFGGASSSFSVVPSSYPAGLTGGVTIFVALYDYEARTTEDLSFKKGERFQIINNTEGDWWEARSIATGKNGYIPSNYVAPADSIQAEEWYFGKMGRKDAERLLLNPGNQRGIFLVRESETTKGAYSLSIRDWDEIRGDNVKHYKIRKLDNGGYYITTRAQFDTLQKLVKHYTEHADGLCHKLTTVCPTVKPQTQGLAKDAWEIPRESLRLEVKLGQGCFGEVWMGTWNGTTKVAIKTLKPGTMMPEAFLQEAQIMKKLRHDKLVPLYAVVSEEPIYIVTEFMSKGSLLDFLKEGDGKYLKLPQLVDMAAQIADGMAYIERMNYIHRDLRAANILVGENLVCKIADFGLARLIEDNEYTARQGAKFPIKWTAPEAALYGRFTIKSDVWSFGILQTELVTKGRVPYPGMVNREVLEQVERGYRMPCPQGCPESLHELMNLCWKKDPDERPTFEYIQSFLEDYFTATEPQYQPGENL
UniProt P00519, whole entry: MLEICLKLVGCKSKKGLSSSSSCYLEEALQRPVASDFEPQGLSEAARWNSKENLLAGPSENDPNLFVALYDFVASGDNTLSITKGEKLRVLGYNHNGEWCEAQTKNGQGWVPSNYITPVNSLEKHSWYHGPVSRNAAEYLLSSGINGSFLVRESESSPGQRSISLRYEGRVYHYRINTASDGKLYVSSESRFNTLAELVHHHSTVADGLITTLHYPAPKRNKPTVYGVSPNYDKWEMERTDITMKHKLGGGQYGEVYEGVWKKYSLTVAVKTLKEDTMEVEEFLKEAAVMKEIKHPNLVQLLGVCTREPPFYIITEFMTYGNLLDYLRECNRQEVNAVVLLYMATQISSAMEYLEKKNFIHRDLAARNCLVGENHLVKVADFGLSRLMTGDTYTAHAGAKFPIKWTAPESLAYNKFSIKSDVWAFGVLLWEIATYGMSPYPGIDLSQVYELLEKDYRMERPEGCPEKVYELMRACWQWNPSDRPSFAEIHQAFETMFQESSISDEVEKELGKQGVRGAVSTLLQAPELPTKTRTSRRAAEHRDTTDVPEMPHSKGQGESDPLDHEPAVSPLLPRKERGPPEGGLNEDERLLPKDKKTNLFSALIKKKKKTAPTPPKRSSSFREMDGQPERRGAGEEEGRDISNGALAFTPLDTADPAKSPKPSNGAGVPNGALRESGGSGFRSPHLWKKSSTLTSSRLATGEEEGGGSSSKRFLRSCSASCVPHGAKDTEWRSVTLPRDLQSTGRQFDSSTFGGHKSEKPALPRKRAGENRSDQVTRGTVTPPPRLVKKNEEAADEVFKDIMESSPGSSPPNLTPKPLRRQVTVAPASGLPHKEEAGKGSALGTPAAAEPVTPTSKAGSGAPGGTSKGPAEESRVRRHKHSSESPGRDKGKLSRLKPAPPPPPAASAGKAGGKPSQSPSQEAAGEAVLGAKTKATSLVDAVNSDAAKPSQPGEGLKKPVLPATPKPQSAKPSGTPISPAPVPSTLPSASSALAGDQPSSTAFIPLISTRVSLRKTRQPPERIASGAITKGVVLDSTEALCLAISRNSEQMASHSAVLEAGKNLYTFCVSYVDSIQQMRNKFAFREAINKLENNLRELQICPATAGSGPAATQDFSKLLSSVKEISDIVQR
UniProt Q9UM73: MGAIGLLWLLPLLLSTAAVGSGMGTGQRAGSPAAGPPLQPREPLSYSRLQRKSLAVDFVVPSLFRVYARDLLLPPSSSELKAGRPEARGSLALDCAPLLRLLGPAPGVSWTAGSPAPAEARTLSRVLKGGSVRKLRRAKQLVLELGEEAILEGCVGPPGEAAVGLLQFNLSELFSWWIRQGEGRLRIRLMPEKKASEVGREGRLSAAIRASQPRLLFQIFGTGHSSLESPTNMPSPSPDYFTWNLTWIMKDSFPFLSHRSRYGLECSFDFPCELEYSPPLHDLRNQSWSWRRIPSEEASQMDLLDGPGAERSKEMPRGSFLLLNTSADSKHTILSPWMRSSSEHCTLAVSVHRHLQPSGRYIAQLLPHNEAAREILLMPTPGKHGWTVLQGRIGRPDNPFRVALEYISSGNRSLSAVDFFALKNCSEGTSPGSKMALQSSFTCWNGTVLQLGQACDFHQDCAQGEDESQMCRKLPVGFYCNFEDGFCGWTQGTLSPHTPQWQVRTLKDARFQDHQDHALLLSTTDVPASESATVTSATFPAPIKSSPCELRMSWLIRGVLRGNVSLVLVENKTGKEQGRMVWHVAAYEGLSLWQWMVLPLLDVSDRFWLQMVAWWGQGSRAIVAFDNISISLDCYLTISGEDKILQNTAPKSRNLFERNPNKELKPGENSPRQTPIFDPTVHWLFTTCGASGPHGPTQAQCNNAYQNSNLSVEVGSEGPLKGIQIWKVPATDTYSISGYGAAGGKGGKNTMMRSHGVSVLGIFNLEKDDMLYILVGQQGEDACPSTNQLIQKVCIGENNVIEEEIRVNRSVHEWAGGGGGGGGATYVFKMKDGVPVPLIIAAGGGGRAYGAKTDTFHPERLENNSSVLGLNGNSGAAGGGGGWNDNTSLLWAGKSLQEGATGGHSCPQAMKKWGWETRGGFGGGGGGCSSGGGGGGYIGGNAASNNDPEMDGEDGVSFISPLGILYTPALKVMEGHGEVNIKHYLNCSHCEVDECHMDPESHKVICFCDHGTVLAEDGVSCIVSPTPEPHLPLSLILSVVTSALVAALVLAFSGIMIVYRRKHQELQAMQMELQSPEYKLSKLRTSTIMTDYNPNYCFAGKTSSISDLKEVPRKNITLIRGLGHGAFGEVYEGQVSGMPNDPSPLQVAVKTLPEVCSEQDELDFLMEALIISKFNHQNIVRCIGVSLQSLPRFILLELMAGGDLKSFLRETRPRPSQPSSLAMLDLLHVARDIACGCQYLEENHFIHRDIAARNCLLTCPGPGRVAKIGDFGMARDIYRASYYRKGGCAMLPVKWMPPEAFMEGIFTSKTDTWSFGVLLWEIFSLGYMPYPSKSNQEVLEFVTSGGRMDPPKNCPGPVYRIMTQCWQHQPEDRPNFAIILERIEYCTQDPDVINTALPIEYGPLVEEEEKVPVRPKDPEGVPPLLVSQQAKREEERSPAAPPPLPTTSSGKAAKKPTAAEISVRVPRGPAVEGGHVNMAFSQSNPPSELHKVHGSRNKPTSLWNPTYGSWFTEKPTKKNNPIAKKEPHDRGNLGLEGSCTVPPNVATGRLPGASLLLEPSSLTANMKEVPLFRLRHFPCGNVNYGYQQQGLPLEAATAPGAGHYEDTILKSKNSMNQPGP
UniProt O14965: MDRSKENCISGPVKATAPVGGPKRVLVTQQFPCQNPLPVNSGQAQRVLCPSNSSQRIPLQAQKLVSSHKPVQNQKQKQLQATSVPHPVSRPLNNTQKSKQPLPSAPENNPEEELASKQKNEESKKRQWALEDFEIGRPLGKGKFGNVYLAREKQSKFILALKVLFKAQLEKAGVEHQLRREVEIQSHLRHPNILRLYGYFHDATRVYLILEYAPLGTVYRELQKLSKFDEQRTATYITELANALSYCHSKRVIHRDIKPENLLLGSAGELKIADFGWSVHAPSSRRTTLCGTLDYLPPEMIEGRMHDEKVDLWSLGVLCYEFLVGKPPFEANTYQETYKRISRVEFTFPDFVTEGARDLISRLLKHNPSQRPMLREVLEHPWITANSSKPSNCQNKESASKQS
UniProt Q96GD4, whole entry: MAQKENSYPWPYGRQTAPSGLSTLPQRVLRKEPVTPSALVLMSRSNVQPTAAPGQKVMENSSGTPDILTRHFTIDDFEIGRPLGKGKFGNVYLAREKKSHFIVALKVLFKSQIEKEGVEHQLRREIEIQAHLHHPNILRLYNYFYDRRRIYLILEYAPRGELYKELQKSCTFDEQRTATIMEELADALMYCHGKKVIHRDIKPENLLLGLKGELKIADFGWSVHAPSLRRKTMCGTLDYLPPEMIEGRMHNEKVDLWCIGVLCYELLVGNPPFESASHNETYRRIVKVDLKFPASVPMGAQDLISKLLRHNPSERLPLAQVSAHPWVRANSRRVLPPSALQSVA
UniProt Q9UQB9: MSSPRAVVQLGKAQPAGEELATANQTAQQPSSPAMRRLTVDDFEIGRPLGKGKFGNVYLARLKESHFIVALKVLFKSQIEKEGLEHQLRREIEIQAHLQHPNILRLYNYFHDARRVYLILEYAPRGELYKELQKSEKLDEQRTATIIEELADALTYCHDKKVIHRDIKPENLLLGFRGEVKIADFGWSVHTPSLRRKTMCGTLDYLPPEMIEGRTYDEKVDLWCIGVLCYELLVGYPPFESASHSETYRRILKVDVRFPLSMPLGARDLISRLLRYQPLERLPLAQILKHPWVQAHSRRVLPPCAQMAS
UniProt P51451: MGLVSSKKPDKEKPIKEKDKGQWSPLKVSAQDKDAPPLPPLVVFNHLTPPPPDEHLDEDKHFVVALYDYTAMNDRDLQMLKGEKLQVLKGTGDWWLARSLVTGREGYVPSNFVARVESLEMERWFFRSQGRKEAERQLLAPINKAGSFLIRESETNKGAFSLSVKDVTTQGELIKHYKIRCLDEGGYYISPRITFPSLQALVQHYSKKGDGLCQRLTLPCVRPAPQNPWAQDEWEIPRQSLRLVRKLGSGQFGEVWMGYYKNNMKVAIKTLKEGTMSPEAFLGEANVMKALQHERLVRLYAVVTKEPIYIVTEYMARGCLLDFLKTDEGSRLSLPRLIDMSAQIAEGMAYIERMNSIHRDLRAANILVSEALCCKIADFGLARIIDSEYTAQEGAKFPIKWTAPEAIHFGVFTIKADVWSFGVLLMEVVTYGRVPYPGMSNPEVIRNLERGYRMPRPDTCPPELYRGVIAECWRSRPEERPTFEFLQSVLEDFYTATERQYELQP
UniProt P51813: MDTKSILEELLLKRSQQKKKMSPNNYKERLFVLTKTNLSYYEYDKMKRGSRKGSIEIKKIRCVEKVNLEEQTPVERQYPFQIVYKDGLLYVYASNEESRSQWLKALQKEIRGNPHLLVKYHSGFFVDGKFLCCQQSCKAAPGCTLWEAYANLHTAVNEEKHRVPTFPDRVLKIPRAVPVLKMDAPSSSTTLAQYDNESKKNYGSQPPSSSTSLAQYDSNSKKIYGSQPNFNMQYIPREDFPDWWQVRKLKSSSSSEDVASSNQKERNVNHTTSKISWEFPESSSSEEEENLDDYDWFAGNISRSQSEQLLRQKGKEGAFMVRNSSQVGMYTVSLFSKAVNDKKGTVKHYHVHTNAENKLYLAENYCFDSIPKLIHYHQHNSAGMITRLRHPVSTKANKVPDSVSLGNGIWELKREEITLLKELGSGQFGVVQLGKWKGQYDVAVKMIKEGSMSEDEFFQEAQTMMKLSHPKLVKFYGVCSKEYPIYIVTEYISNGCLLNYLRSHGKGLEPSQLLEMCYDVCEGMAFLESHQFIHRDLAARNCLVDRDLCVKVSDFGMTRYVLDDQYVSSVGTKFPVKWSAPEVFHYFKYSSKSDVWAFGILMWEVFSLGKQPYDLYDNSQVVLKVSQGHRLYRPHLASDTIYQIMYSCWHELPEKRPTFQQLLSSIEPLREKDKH

Legend:
Conditions in all cases: K562; 2-18 h
STK38 = STK38 (UniProt Q15208); assay: kinase-Nluc reporter destabilization hit call (1 = scored as downregulated) (binary); higher = compound decreases kinase abundance
SYK = SYK (UniProt P43405); assay: as above
TEC = TEC (UniProt P42680); assay: as above
TYK2 = TYK2 (UniProt P29597); assay: as above
ULK3 = ULK3 (UniProt Q6PHR2); assay: as above
YES1 = YES1 (UniProt P07947); assay: as above
ZAK = ZAK (UniProt Q9NYL2); assay: as above
ZAP70 = ZAP70 (UniProt P43403); assay: as above
ABL1 = ABL1 (UniProt P00519); assay: number of time points (of 5) at which kinase-Nluc abundance scored as decreased, DMSO-normalised (count); higher = more persistent destabilization
AKT1 = AKT1 (UniProt P31749); assay: as above
ALK = ALK (UniProt Q9UM73); assay: as above
ARAF = ARAF (UniProt P10398); assay: as above
AURKA = AURKA (UniProt O14965); assay: as above
AURKB = AURKB (UniProt Q96GD4); assay: as above
AURKC = AURKC (UniProt Q9UQB9); assay: as above
BLK = BLK (UniProt P51451); assay: as above
BMX = BMX (UniProt P51813); assay: as above
BRAF_V600E = assay: as above
BTK = BTK (UniProt Q06187); assay: as above
BRAF = BRAF (UniProt P15056); assay: as above

SMILES	kinase-Nluc reporter destabilization hit call (STK38)	kinase-Nluc reporter destabilization hit call (SYK)	kinase-Nluc reporter destabilization hit call (TEC)	kinase-Nluc reporter destabilization hit call (TYK2)	kinase-Nluc reporter destabilization hit call (ULK3)	kinase-Nluc reporter destabilization hit call (YES1)	kinase-Nluc reporter destabilization hit call (ZAK)	kinase-Nluc reporter destabilization hit call (ZAP70)	number of time points (ABL1)	number of time points (AKT1)	number of time points (ALK)	number of time points (ARAF)	number of time points (AURKA)	number of time points (AURKB)	number of time points (AURKC)	number of time points (BLK)	number of time points (BMX)	number of time points (BRAF_V600E)	number of time points (BTK)	number of time points (BRAF)
COc1cc(Oc2ccnc3cc(OC)c(OC)cc23)ccc1NC(=O)NC(C)c1nccs1 (stereo unspecified) (2.5 µM)	inactive: 0	inactive: 0	inactive: 0	inactive: 0	inactive: 0	inactive: 0	inactive: 0	inactive: 0	0	0	0	0	0	0	0	0	0	0	0	
COc1cc2ncnc(Nc3ccc(O)cc3)c2cc1OC (10 µM)	inactive: 0	inactive: 0	inactive: 0	inactive: 0	inactive: 0	inactive: 0	inactive: 0	inactive: 0	0	0	0	0	0	0	0	0	0	0	0	
Cc1c[nH]c2nccc(Oc3c(F)cc(Nc4cc(Cl)nc(N)n4)cc3F)c12 (10 µM)	inactive: 0	inactive: 0	inactive: 0	inactive: 0	inactive: 0	inactive: 0		inactive: 0	2	0	0	0	0	0	0	0	0	0	0	0
COc1cc(F)cc([C@@H](CO)NC(=O)[C@@H](C)N2Cc3ccc(-c4nc(NC5CCOCC5)ncc4Cl)cc3C2=O)c1 [ERK1/2 inhibitor 2] (10 µM)	inactive: 0	inactive: 0	inactive: 0	inactive: 0	inactive: 0	inactive: 0	inactive: 0	inactive: 0	0	0	0	0	0	0	0	0	0		0	0
